Some of the results follow. The main result of the screen is listed elsewhere. These columns were measured beside it and carry no call. Most of these compounds were active or inconclusive in the main read-out, so they are no random draw. Words in brackets tell the shape of the fitted curve; partial curves, single points and poor fits give uncertain potencies.

The experiment in a line: IkB Signaling. Conditions: ABC-DLBCL IkBa-CBG/CBR dual luciferase ratio (green luciferase fused to IkBa over red control in OCI-Ly3 lymphoma cells), 4 h; measured here: control luc red channel unless noted. Summed up: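 Curves were fitted separately to fusion (green), unfused (red) and ratio luminescence, then classed by r2, magnitude and activity. Cells: OCI-Ly3, 4 h compound plus doxycycline at 37C; 10 uM MG-132 defined full response.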
As to `Nc1c(N2CCN(c3ccccc3)CC2)c2ccccc2oc1=O`, the concentration at half-maximal activity (AC50) (usually the concentration giving half of the maximal activity seen) was 20 µM [falling, partial curve, poor fit]. As for `CC(C)(C)OC(=O)N1CCC(c2c(C(=O)NCc3ccco3)cnn2-c2ccccc2Cl)CC1`, the half-maximal activity concentration (AC50) is 15.8 µM [falling, partial curve].

Consider `CC(=O)c1cc(-c2ccccc2)n(CCC(=O)NC(C)c2ccccc2)c1C` (centres undefined), for which the AC50 was 7.94 µM [rising, partial curve, poor fit].

Turning to `COC(=O)c1ccccc1NS(=O)(=O)c1ccc2c(c1)CCCN2C(C)=O`, the half-maximal activity concentration (AC50) is 0.2 µM [falling, full curve, poor fit]. In the case of `O=C(NCc1cccs1)c1ccc(CSc2nc3ccncc3n2Cc2ccccc2)cc1` it was 12.6 µM [falling, partial curve]; in that of `CCOc1ccc(S(=O)(=O)NCCc2csc3nc(-c4ccc(F)cc4)nn23)cc1`, 20 µM [rising, partial curve]; in that of `CCOC(=O)c1ccc(NC(=O)Cn2c(=O)cc(C(F)(F)F)c3c(C)nn(C)c32)cc1`, 39.8 µM [falling, single point].

As for `Cc1[nH]c2ccccc2c1SCCNC(=O)c1ccc(Br)o1`, the AC50 is 31.6 µM [falling, single point]. With `Fc1ccc(CSc2nc(NCc3ccccc3)c3ccccc3n2)cc1` the figure was 25.1 µM [falling, partial curve]; with `COc1ccc(-c2cc(C(=O)Nc3cccc(O)c3)on2)cc1OC`, 25.1 µM [falling, single point]; with `Cc1cccc(CSCc2ccc(C(=O)NCCc3ccccc3)o2)c1`, 39.8 µM [falling, single point]. On to `CCCC1C(c2ccccc2)C(C#N)(C#N)C2(C#N)CC1(N)NC2=O` (centres undefined), for which the concentration at half-maximal activity (AC50) is 20 µM [falling, partial curve]. In the case of `CCc1ccc(NC(=O)N(CCCN2CCOCC2)C(C)c2cc3cccc(OC)c3o2)cc1` (centres undefined) it was 25.1 µM [falling, partial curve, poor fit]; in that of `Cc1cc(C)c2c(CC(=O)Nc3ccc(S(=O)(=O)N4CCCCC4)cc3)coc2c1`, 3.16 µM [falling, partial curve]; in that of `O=C(c1cc2ccccc2oc1=O)N1CCN(c2ccc(F)cc2)CC1`, 20 µM [falling, partial curve]. With `COc1cccc(-c2nn(C)c3sc(C(=O)NCc4ccco4)cc23)c1`, the concentration at half-maximal activity (AC50) was 10 µM [falling, partial curve]. `Nc1c(-c2nc(-c3ccccc3)no2)nnn1CC(=O)Nc1cccc(F)c1`: the AC50 was 15.8 µM [falling, partial curve]. For `COc1ccc(CC(=O)Nc2ccc(S(=O)(=O)NCC3CCCO3)cc2)cc1` (centres undefined), the AC50 is 20 µM [falling, partial curve]. On to `CC(=O)c1ccc(NC(=O)CN(C)S(=O)(=O)c2cc3c(cc2Cl)NC(=O)CO3)cc1`, for which the AC50 was 39.8 µM [falling, single point]. With `CCCN(CCC)S(=O)(=O)c1ccc(C(=O)Nc2cccc(-c3nc4ccccc4[nH]3)c2)cc1`, the half-maximal activity concentration (AC50) is 12.6 µM [falling, partial curve]. Regarding `N#Cc1c(-n2ncnc2-c2ccccc2C(F)(F)F)sc2c1CCCCC2`, the AC50 is 2.51 µM [rising, partial curve, poor fit]. With `CCCN(CCC)C(=O)CSc1nc2n[nH]c(C)c2c(=N)n1-c1ccc(OC)cc1` the figure was 25.1 µM [falling, partial curve]. As for `Cc1ccc(NCc2cccn2-c2nnc(N3CCC(C(=O)NCCC(C)C)CC3)s2)cc1`, the concentration at half-maximal activity (AC50) was 15.8 µM [falling, single point]. As to `COc1ccccc1N1CCN(c2nc3ccccc3n3cnnc23)CC1`, the AC50 was 39.8 µM [falling, single point]. Regarding `CCc1ccc(-n2nnc(-c3nsc(NC(=O)c4ccccc4Cl)n3)c2C)cc1`, the AC50 was 7.94 µM [falling, partial curve].

In the case of `Cc1ccc2c(c1)N(C(=O)N1CCC(C(=O)NCc3cccc(Br)c3)CC1)CCO2`, the concentration at half-maximal activity (AC50) was 15.8 µM [falling, partial curve]. In the case of `COc1ccc(C)cc1NC(=O)COc1cc(=O)n(C)c2ccccc12` it was 39.8 µM [rising, single point]; in that of `c1ccc(N2CCN(c3nc4ccccc4n4nnnc34)CC2)cc1`, 0.316 µM [falling, full curve]. In the case of `O=C(Nc1ccc(Br)cc1)c1ccc(F)c(S(=O)(=O)NC2CCCCCC2)c1`, the half-maximal activity concentration (AC50) was 25.1 µM [falling, partial curve].

`O=C(COc1ccccc1)Nc1ccccc1C(=O)NCc1ccco1`: the AC50 is 15.8 µM [falling, partial curve]. Turning to `COc1ccc(Cl)cc1C(=O)N(Cc1nc(-c2cccc(C)c2)no1)C(C)C`, the half-maximal activity concentration (AC50) is 12.6 µM [falling, partial curve]. On to `CCOC(=O)C1CCN(CC(=O)Nc2cc(C)c3c(=O)oc4ccccc4c3n2)CC1`, for which the half-maximal activity concentration (AC50) is 25.1 µM [falling, partial curve, poor fit]. In the case of `Cc1cn2c(=O)cc(COc3cccc(NC(=O)c4ccc(C(C)(C)C)cc4)c3)nc2s1` it was 2.51 µM [falling, full curve].

As for `Cc1nn(-c2ccccc2)c2nc(C3CC3)cc(C(=O)Nc3ccc(F)cc3)c12`, the concentration at half-maximal activity (AC50) was 15.8 µM [falling, partial curve].

For the compound `O=C(CCn1cnc2onc(-c3ccc(F)cc3)c2c1=O)Nc1ccc(F)c(Cl)c1`, the AC50 is 6.31 µM [falling, single point].

As for `CCc1c(C)sc2c1CCN(Cc1ccccc1)C2c1ccccc1` (centres undefined), the AC50 was 39.8 µM [falling, single point]. On to `CCOC(=O)c1cc(-c2ccccc2)n(CCC(=O)NCc2ccccc2Cl)c1C`, for which the concentration at half-maximal activity (AC50) is 2 µM [rising, partial curve]. In the case of `COc1ccc(Nc2nc3ccccc3nc2NS(=O)(=O)c2ccc(C)cc2)c(OC)c1`, the AC50 was 15.8 µM [falling, single point]. Take `CCN(CC)c1cc(C)c2cc(NC(=O)c3cccc(OC)c3OC)ccc2n1`: the half-maximal activity concentration (AC50) was 15.8 µM [rising, partial curve]. Turning to `Cc1nc2nc(SCC(=O)N(C)Cc3ccccc3)nn2c(C)c1Cc1ccccc1Cl`, the AC50 was 25.1 µM [falling, partial curve]. `Cc1c(Cl)cccc1-c1ccc(CNCCCSc2nnnn2C)o1`: the concentration at half-maximal activity (AC50) is 39.8 µM [falling, single point].

On to `Cc1ccc(Sc2ccc(N3CCCC(C(=O)Nc4ccc(Br)cc4)C3)nn2)cc1` (centres undefined), for which the concentration at half-maximal activity (AC50) was 5.01 µM [falling, full curve]. In the case of `COc1ccc(SCc2cc(=O)c3ccc(C)c(C)c3[nH]2)cc1`, the half-maximal activity concentration (AC50) is 15.8 µM [falling, partial curve].

For `O=C(NCCc1ccc(Cl)cc1)c1cc(-c2ccccc2)n[nH]1`, the AC50 was 10 µM [falling, partial curve]. Regarding `Cc1ccc(C)c(N2CCN(c3nc4ccccc4c(=O)n3-c3ccc(Cl)cc3)CC2)c1`, the AC50 was 20 µM [falling, single point]. Take `Cc1ccc(C)c(-n2nnnc2SCC(=O)NCCC2=CCCCC2)c1`: the concentration at half-maximal activity (AC50) was 20 µM [falling, partial curve]. In the case of `COc1ccc2c(c1)Cc1sc(NC(=O)c3ccccc3C)nc1-2`, the AC50 is 20 µM [falling, partial curve].

Take `COc1cccc(CNC(=O)c2ccc(-c3nc(CS(=O)c4ccccc4)c(C)o3)cc2)c1` (centres undefined): the concentration at half-maximal activity (AC50) was 31.6 µM [falling, single point].

Turning to `CCN(CCCNC(=O)CSc1cc(=O)n(CC)c2ccccc12)c1ccccc1`, the AC50 is 15.8 µM [falling, partial curve]. With `CCc1ccc(CNC(=O)Cn2ccc3cc(S(=O)(=O)N4CCCCCC4)ccc32)cc1` the figure was 3.16 µM [falling, full curve, poor fit]; with `COc1ccc(OC)c2sc(N(Cc3cccnc3)C(C)=O)nc12`, 0.00631 µM [rising, full curve, poor fit]; with `Nn1c(-c2cccs2)nc2sc3c(c2c1=O)CCCC3`, 39.8 µM [falling, single point]. Turning to `COc1ccc2cc3c(N)nn(C(=O)Cc4ccccc4OC)c3nc2c1`, the concentration at half-maximal activity (AC50) was 20 µM [falling, partial curve]. In the case of `COc1ccc(-c2cc(C(=O)N3CCCCC3)no2)cc1OC`, the AC50 was 12.6 µM [falling, partial curve]. Turning to `CC1CN(C(=O)Nc2ccc(C(=O)NCc3ccccc3F)cc2)c2ccccc2S1` (centres undefined), the half-maximal activity concentration (AC50) is 12.6 µM [falling, partial curve]. As for `COC(=O)c1ccc(NC(=O)CSc2n[nH]c(-c3ccccc3)n2)cc1`, the concentration at half-maximal activity (AC50) is 3.98 µM [falling, partial curve, poor fit]. `Fc1ccccc1N1CCN(Cc2nnc(-c3ccc4c(c3)OCO4)o2)CC1`: the AC50 is 31.6 µM [falling, single point].

Regarding `Cc1ccc(C)c(N2C(=O)N(Cc3ccccc3C)c3ccccc3S2(=O)=O)c1`, the concentration at half-maximal activity (AC50) was 7.94 µM [falling, full curve]. On to `CCn1cc(C2=NC(c3ccccc3)CO2)c2ccccc21` (centres undefined), for which the concentration at half-maximal activity (AC50) was 15.8 µM [falling, partial curve]. On to `O=C(Nc1nc2c(Cl)cccc2s1)c1ccc(S(=O)(=O)N2CCc3ccccc32)cc1`, for which the half-maximal activity concentration (AC50) is 0.316 µM [falling, full curve].

As to `Cc1ccc(NC(=O)Cc2ccc(NC(=O)N3CCCCc4ccccc43)cc2)cc1Cl`, the half-maximal activity concentration (AC50) is 20 µM [falling, partial curve]. Consider `O=C(Nc1ccccc1C(F)(F)F)c1cc(-c2ccccc2O)on1`, for which the concentration at half-maximal activity (AC50) is 0.000158 µM [falling, full curve]. With `Cc1cccc(C)c1-n1ncc(C(=O)NCCCN2CCCCC2)c1C1CCN(C(=O)OC(C)(C)C)CC1` the figure was 15.8 µM [falling, partial curve]; with `COc1ccc(C2CC(C(F)(F)F)n3nc(C(=O)NCc4c(C)nn(C)c4C)c(Cl)c3N2)cc1` (centres undefined), 20 µM [falling, partial curve].

For the origin of these results see PubChem BioAssay AID445 (National Center for Advancing Translational Sciences (NCATS), 2006).
